Binding data for two substances are collected here from publication doi:10.1101/781807.

Protein sequences, listed by entry. Tags and fused reporters are not part of them. Residues count along the entry.
UniProt P16144, residues 28-1822: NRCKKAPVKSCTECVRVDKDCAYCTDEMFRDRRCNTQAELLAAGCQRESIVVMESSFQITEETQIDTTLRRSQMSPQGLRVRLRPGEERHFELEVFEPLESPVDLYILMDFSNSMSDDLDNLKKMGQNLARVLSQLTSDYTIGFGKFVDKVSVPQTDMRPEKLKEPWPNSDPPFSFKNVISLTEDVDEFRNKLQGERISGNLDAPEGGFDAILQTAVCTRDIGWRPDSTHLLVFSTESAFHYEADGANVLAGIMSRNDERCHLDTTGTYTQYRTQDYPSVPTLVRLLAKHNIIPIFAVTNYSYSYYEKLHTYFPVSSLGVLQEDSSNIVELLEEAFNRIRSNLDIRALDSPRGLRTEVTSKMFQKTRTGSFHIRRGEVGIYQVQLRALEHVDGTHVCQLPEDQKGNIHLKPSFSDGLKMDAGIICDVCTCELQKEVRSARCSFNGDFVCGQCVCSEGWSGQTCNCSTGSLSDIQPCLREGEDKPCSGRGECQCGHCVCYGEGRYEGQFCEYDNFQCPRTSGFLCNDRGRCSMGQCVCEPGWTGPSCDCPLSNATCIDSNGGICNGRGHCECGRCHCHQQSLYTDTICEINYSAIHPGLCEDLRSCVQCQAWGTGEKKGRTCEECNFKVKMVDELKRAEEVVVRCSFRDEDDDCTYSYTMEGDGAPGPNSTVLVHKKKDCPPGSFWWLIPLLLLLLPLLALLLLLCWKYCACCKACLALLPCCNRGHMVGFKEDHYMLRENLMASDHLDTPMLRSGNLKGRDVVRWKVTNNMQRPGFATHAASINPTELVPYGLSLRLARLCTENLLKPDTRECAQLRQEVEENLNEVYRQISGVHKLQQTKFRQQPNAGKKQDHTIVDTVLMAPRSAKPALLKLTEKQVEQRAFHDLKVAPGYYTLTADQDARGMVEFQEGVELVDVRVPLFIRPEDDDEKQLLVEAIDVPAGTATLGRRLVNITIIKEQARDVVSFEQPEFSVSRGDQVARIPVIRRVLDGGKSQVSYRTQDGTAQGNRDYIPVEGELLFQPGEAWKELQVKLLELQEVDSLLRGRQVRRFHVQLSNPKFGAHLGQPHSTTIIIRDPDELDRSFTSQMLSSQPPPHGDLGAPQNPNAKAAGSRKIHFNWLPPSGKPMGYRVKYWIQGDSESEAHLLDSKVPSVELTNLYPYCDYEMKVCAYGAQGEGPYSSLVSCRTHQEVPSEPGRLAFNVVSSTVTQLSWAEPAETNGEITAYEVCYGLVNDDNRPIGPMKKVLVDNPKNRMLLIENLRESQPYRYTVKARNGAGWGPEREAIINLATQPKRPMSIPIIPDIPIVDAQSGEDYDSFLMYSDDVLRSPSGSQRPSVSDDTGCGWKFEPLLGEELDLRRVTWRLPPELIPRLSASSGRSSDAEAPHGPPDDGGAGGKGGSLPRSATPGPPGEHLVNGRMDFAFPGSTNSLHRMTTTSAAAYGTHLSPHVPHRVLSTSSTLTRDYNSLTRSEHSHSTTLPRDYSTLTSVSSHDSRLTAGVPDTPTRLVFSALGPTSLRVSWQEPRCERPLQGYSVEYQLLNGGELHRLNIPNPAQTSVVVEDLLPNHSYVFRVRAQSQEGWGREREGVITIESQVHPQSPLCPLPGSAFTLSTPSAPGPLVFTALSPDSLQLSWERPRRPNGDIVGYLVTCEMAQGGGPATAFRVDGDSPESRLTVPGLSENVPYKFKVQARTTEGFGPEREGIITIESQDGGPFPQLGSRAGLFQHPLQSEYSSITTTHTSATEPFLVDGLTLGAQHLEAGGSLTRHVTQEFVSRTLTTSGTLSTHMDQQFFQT
UniProt P49023: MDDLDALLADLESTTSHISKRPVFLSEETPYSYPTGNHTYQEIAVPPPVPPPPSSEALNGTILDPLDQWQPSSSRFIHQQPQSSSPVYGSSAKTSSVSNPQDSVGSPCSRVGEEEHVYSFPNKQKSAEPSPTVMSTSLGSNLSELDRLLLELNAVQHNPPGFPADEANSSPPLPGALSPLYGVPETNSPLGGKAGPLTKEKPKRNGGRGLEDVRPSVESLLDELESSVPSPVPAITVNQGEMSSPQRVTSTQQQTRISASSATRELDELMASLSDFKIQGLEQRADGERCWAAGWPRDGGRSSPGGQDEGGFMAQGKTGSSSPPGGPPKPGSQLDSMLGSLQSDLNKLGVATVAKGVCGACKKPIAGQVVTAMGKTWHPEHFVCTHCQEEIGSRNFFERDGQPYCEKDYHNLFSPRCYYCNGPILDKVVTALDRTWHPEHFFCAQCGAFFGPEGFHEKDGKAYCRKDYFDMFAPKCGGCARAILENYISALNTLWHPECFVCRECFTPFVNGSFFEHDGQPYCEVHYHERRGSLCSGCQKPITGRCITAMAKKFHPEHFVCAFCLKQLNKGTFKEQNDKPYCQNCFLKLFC
UniProt Q05397: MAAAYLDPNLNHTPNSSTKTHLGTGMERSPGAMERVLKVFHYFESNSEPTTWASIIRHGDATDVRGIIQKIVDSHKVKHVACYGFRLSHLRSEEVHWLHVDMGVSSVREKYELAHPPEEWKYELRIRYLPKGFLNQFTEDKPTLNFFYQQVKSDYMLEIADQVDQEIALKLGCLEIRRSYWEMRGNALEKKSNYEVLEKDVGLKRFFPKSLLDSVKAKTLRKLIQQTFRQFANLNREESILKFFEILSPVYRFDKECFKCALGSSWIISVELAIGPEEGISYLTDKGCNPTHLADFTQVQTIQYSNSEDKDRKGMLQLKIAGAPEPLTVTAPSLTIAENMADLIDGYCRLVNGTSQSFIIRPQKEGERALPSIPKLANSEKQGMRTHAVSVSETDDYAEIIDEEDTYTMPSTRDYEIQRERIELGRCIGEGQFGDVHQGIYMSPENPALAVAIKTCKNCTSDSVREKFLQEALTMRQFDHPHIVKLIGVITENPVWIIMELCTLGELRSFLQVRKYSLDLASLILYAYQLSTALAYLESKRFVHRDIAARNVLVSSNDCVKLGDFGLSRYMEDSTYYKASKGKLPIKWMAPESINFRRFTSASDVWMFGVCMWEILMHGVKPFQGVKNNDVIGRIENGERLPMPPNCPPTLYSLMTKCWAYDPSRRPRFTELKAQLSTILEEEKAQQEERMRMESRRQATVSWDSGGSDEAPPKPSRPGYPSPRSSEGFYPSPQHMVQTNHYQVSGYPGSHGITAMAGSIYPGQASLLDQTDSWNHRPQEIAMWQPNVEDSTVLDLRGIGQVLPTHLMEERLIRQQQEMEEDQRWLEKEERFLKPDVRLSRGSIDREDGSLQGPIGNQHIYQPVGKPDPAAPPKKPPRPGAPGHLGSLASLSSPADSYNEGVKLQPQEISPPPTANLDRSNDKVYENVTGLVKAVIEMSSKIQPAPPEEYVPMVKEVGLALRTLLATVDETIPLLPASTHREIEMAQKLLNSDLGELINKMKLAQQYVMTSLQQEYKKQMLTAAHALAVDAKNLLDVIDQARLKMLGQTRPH

Results are given in words; binding and its absence hold for the method and conditions named. In cells and extracts the contact can be indirect. Some results given as binding are weak or reduced against the parent protein; the word gives no strength.

The target in the assay is integrin beta 4 (ITGB4) (human (endogenous in H2009)) (UniProt P16144). The assay can be described thus: co-IP.

“paxillin (PXN) (from UniProt P49023 1-591)”: the binding entry was “binds”.
The entry for “focal adhesion kinase (FAK) (from UniProt Q05397 1-1052) (enzyme)” is “binds”.
